Taken from: PubChem BioAssay AID1259291 (Sanger Institute, 2017)
The deposit covers 794 reagents; below is an unselected part. 15 of them (1.9%) were called active. 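Calls rest on knock-down alone; drug synergy scores do not affect them; drugs added a day post-transfection, DMSO vehicle as comparison.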 A number with no mark means an inactive call. Further read-outs or replicates are left out here. No sequences are given here. The record does not give: the amount of reagent, the time to read-out.

- Purpose: 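Genes needed for HT29 colorectal cancer cell survival or for sensitivity to drugs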 (primary screen)
- Cells: HT29 human colorectal cancer cells
- Reagent: siRNA pool against human genes
- Challenge: anchor drugs added a day after transfection: BYL719 at 1 µM, cetuximab at 5 µg/ml or trametinib at 10 nM, or DMSO vehicle alone
- Read-out: 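Replicate-averaged viability relative to non-targeting pool, robust z-score based on control wells, plus per-drug synergy score for 1 µM BYL719, 5 µg/ml cetuximab and 10 nM trametinib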
- Scale: robust z-score, knock-down alone: higher = more viable cells
- Active means: 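Essential when the robust z-score for knock-down without any drug is below -3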
- Meaning of the calls: active = essential (knock-down alone); inactive = no change alone

{"Gene": "EGFR", "robust z-score, knock-down alone": -0.171}
{"Gene": "CDK17", "robust z-score, knock-down alone": 0.552}
{"Gene": "COASY", "robust z-score, knock-down alone": -2.01}
{"Gene": "CAMK2B", "robust z-score, knock-down alone": 0.552}
{"Gene": "IDH2", "robust z-score, knock-down alone": 0.552}
{"Gene": "POMK", "robust z-score, knock-down alone": -0.452}
{"Gene": "ACVRL1", "robust z-score, knock-down alone": 0.552}
{"Gene": "RPS6KL1", "robust z-score, knock-down alone": 0.552}
{"Gene": "NIM1K", "robust z-score, knock-down alone": 0.552}
{"Gene": "EXOSC10", "robust z-score, knock-down alone": 0.552}

Records above whose target name begins with E or e (2):
{"Gene": "EGFR", "robust z-score, knock-down alone": -0.171}
{"Gene": "EXOSC10", "robust z-score, knock-down alone": 0.552}

The results go on:
{"Gene": "STK26", "robust z-score, knock-down alone": -0.602}
{"Gene": "CKMT2", "robust z-score, knock-down alone": 0.552}
{"Gene": "MAP2K5", "robust z-score, knock-down alone": 0.552}
{"Gene": "TRIM27", "robust z-score, knock-down alone": 0.0667}
{"Gene": "NME1", "robust z-score, knock-down alone": 0.552}
{"Gene": "PRPS1L1", "robust z-score, knock-down alone": 0.552}
{"Gene": "VRK2", "robust z-score, knock-down alone": 0.552}
{"Gene": "MUSK", "robust z-score, knock-down alone": -0.97}
{"Gene": "PCK2", "robust z-score, knock-down alone": 0.197}
